Results reported in PubChem BioAssay AID330 (DTP/NCI, 2004).
The list is a part of this screen's results and no random one: it gathers tests that were run many times, whatever their T/C, doses with no T/C, and many T/C values between a quarter and a half above the control. Further doses and runs are listed elsewhere. T/C is the treated group as % of the vehicle group. Some doses have a count of surviving animals in place of a T/C: the source holds a T/C of zero for them, seemingly a mark for toxic or unscored doses. Some survivor counts are full or nearly so, which does not show that the dose was tolerated: survival well below the control is almost never listed, so the zero probably covers shortened survival too. Survivors were counted at the toxicity check, usually on the fifth day, unless a day is given; later deaths do not show. Schedules are NCI's codes, taken here to give the interval after Q, in days (D) or hours (H), and the number of doses after X. For survival time, this PubChem deposit counts one and a half times the control or more as active, and values a quarter to a half above the control carry no call in these data; other NCI protocols may use other cut-offs.

Tested on: P388 leukemia ip, CD2F1 mice, survival T/C
Test: NCI In Vivo Anticancer Drug Screen. Data for tumor model P388 Leukemia (intraperitoneal) in CD2F1 (CDF1) mice
Conditions: T/C endpoint: median survival time, higher T/C = longer survival
[1] = dose: 25.0 mg/kg/injection, schedule: Q04DX002 (ip), vehicle: Klucel (hydroxypropylcellulose) (HPC)
[2] = dose: 100.0 mg/kg/injection, schedule: Q04DX002 (ip), vehicle: Klucel (hydroxypropylcellulose) (HPC)
[3] = dose: 200.0 mg/kg/injection, schedule: Q01DX009 (ip), vehicle: saline

## c1cc(Nc2ccc(Nc3ccc(CN4CCCCC4)cc3)cc2)ccc1CN1CCCCC1
dose: 200.0 mg/kg/injection, schedule: Q01DX009 (ip), vehicle: saline + Tween-80 + alcohol
  survivor count: 2 of 6
dose: 400.0 mg/kg/injection, schedule: Q01DX009 (ip), vehicle: saline + Tween-80 + alcohol
  survivor count: 0 of 6

## CC(=O)[O-].CC(=O)[O-].CC(=O)[O-].CC(=O)[O-].Cn1c(=O)c2[nH]cnc2n(C)c1=O.Cn1c(=O)c2[nH]cnc2n(C)c1=O.[Rh+2].[Rh+2]
[1]
  T/C: 128 % of control
[2]
  T/C: 130 % of control
  survivor count: 3 of 6
dose: 200.0 mg/kg/injection, schedule: Q04DX002 (ip), vehicle: Klucel (hydroxypropylcellulose) (HPC)
  survivor count: 0 of 6
dose: 400.0 mg/kg/injection, schedule: Q04DX002 (ip), vehicle: Klucel (hydroxypropylcellulose) (HPC)
  survivor count: 0 of 6

## Cc1cc2nc3c(=O)[nH]c(=O)nc-3n(CCOC(=O)CCC(=O)O)c2cc1C
dose: 400.0 mg/kg/injection, schedule: Q04DX003 (ip), vehicle: saline sonified
  survivor count: 3 of 6

## O=C(O)CC1C(=O)OC2C3COC(=O)c4cc(O)c(O)c(O)c4-c4c(cc(O)c(O)c4O)C(=O)OC2C(OC(=O)c2cc(O)c(O)c4c2C1C(O)C(=O)O4)C(OC(=O)c1cc(O)c(O)c(O)c1)O3 (stereo not given)
dose: 100.0 mg/kg/injection, schedule: Q01DX009 (ip), vehicle: saline
  survivor count: 5 of 6
[3]
  survivor count: 1 of 6

## S=C1CCCCCN1
dose: 100.0 mg/kg/injection, schedule: Q01DX005 (ip), vehicle: Klucel (hydroxypropylcellulose) (HPC)
  survivor count: 0 of 5
dose: 200.0 mg/kg/injection, schedule: Q01DX005 (ip), vehicle: Klucel (hydroxypropylcellulose) (HPC)
  survivor count: 0 of 5

## C=Cc1cc(=O)oc2cc(OC)ccc12
dose: 100.0 mg/kg/injection, schedule: Q01DX005 (ip), vehicle: saline with Tween-80
  survivor count: 2 of 6
dose: 200.0 mg/kg/injection, schedule: Q01DX005 (ip), vehicle: saline with Tween-80
  survivor count: 0 of 6

## COc1cc2c3cc1Oc1c(O)c(OC)cc4c1[C@H](Cc1ccc(O)c(c1)Oc1ccc(cc1)C[C@H]3N(C)CC2)N(C)CC4
dose: 75.0 mg/kg/injection, schedule: Q01DX009 (ip), vehicle: Klucel (hydroxypropylcellulose) (HPC)
  survivor count: 6 of 6
dose: 150.0 mg/kg/injection, schedule: Q01DX009 (ip), vehicle: Klucel (hydroxypropylcellulose) (HPC)
  survivor count: 2 of 6

## O=S(=O)(O)O.[Cu+2].[NH-]CCCCC[NH-].[NH-]CCCCC[NH-]
[1]
  survivor count: 2 of 6
dose: 50.0 mg/kg/injection, schedule: Q04DX002 (ip), vehicle: Klucel (hydroxypropylcellulose) (HPC)
  survivor count: 0 of 6
dose: 75.0 mg/kg/injection, schedule: Q04DX002 (ip), vehicle: Klucel (hydroxypropylcellulose) (HPC)
  survivor count: 0 of 6
dose: 150.0 mg/kg/injection, schedule: Q04DX002 (ip), vehicle: Klucel (hydroxypropylcellulose) (HPC)
  survivor count: 0 of 6
dose: 300.0 mg/kg/injection, schedule: Q04DX002 (ip), vehicle: Klucel (hydroxypropylcellulose) (HPC)
  survivor count: 0 of 6

## Cc1cc(NCCCN(C)C)c2ccc3cc4ccccc4cc3c2n1
dose: 200.0 mg/kg/injection, schedule: Q04DX002 (ip), vehicle: saline with Tween-80
  survivor count: 5 of 6
dose: 400.0 mg/kg/injection, schedule: Q04DX002 (ip), vehicle: saline with Tween-80
  survivor count: 2 of 6

## Cc1ccc([C@H]2N[C@@H]2c2ccccn2)cc1
dose: 240.0 mg/kg/injection, schedule: Q01DX005 (ip), vehicle: saline with Tween-80
  survivor count: 0 of 6

## COC(=O)C(N)CSCSCc1ccccc1 (stereo not given)
[3]
  survivor count: 2 of 6

## CCCCCCCCCCNC1CC(OC2CC(O)(C(C)=O)Cc3c(O)c4c(c(O)c32)C(=O)c2c(OC)cccc2C4=O)OC(C)C1O (stereo not given)
dose: 75.0 mg/kg/injection, schedule: Q04DX003 (ip), vehicle: water
  survivor count: 1 of 3
dose: 150.0 mg/kg/injection, schedule: Q04DX003 (ip), vehicle: water
  survivor count: 0 of 3

## C[C@@H]1C[C@@]2(C)[C@@H](CC[C@@H]3[C@@H]2CC[C@]2(C)[C@@H](O)CC[C@@H]32)CC1=O
dose: 400.0 mg/kg/injection, schedule: Q04DX003 (ip), vehicle: Klucel (hydroxypropylcellulose) (HPC)
  survivor count: 2 of 6

## C#CC(O)C1CC1 (stereo not given)
dose: 200.0 mg/kg/injection, schedule: Q01DX001 (ip), vehicle: saline + Tween-80 + alcohol
  survivor count: 1 of 6
dose: 400.0 mg/kg/injection, schedule: Q01DX001 (ip), vehicle: saline + Tween-80 + alcohol
  survivor count: 0 of 6
